Laboratory results as given in US7727976B2.

Sequences of proteins named here, by UniProt entry; tags and fusion partners are left off.
UniProt Q12908, whole entry: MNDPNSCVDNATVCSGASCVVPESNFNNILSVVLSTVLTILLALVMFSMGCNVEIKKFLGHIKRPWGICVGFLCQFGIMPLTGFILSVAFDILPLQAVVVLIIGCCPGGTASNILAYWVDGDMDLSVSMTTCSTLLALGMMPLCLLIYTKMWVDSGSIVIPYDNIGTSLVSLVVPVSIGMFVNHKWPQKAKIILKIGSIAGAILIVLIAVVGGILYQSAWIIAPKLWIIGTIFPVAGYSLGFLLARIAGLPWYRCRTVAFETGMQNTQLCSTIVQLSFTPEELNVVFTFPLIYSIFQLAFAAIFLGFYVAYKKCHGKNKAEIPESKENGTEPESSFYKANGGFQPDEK
UniProt Q14973, whole entry: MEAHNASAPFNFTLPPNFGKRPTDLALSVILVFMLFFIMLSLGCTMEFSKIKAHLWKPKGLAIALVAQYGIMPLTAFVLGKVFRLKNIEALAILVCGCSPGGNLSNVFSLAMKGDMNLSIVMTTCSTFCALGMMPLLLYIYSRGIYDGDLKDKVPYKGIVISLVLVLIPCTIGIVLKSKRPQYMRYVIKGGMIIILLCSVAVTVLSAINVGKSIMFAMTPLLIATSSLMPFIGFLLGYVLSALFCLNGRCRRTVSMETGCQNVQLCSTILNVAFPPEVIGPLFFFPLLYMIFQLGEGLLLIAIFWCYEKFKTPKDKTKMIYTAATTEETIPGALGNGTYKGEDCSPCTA

How the values were obtained:
[1] = molecular target: T1, hIBAT (Homo sapiens, UniProt Q12908); test: Electrogenic transport in Xenopus oocytes expressing hIBAT (oocyte assay); details: Table 10; relative to glycodeoxycholic acid (GDC) in transporter-expressing oocytes, test sample concentration 100 μM
Text: RNA preparation: Human IBAT and LBAT Transporter cDNAs were subcloned into a modified pGEM plasmid that contains 5′ and 3′ untranslated sequences from the Xenopus β-actin gene. These sequences increase RNA stability and protein expression. Plasmid cDNA was linearized and used as template for in vitro transcription (Epicentre Technologies transcription kit, 4:1 methylated:non-methylated GTP).
Xenopus oocyte isolation. Xenopus laevis frogs were anesthetized by immersion in Tricaine ([…] in deionized water) for 15 min. Oocytes were removed and digested in frog ringer solution (90 mM NaCl, 2 mM KCl, 1 mM MgCl2, 10 mM NaHEPES, pH 7.45, no CaCl2) with 1 mg/mL collagenase (Worthington Type 3) for 80-100 min with shaking. The oocytes were washed 6 times, and the buffer changed to frog ringer solution containing CaCl2 (1.8 mM). Remaining follicle cells were removed if necessary. Cells were incubated at 16° C., and each oocyte injected with […] RNA in 45 μL solution.
Electrophysiology measurements. Transport currents were measured 2-14 days after injection, using a standard two-electrode electrophysiology set-up (Geneclamp 500 amplifier, Digidata 1320/PCLAMP software and ADInstruments hardware and software were used for signal acquisition). Electrodes ([…]) were microfabricated using a Sutter Instrument puller and filled with 3M KCl. […]

[2] = molecular target: T1, hIBAT; test: Inhibition of radiolabeled taurocholate uptake in hIBAT-transfected CHO cells; details: read-out: hIBAT, IC50; Table 9; inhibition of tritiated taurocholate uptake, radiolabelled competition assay in transporter-expressing CHO cells
Procedure: (§1) CHO cells transfected with either the hIBAT or hLBAT transporter were seeded into 96-well microtiter plates at 100,000 cells/well in 100 μL DMEM containing 10% serum, glutamine and Penstrep. After overnight incubation the media was removed and test compound (25 μL) added at 2× the final desired concentration. Tritiated taurocholate (50,000 CPM/well) was diluted with cold substrate to a final concentration of 5 μM and 25 μL/well of this mixture was added to the plate. After incubating for 1 h at room temperature the solution was removed and the plate washed 4× with PBS at 4° C. 200 μL/well of scintillant is added and the plate then read in a Wallac microbeta counter. The inhibition data is processed by standard methods to calculate an inhibition constant IC50 for the test compound.

[3] = molecular target: hLBAT (Homo sapiens, UniProt Q14973); test: Inhibition of radiolabeled taurocholate uptake in hLBAT-transfected CHO cells; details: read-out: hLBAT, IC50; Table 9; inhibition of tritiated taurocholate uptake, radiolabelled competition assay in transporter-expressing CHO cells
Procedure: as §1

% Max GDC [1]	IC50 [2]	IC50 [3]	Compound
21% and 8%	–	–	C[C@H](CCC(=O)NCC(=O)O)[C@H]1CC[C@H]2[C@@H]3[C@H](O)C[C@@H]4Cc5[nH]ncc5C[C@]4(C)[C@H]3CC[C@]12C
–	> 300 µM and 140 µM	20 µM and 2 µM	C[C@H](CCC(=O)NCC(=O)O)[C@H]1CC[C@H]2[C@@H]3CC[C@@H]4Cc5nc(-c6ccc(C(N)=O)cc6)ncc5C[C@]4(C)[C@H]3CC[C@]12C

Certain results were filed several times, with different values. The other results are left out here. The source may hold further records. Values given together differ, and nothing given here explains why; some may be repeats, others may stem from another dose, organism or construct than stated.
